From publication PMC6803371 come the findings set out here.

Sequences of proteins named here, by UniProt entry; tags and fusion partners are left off.
UniProt Q62318: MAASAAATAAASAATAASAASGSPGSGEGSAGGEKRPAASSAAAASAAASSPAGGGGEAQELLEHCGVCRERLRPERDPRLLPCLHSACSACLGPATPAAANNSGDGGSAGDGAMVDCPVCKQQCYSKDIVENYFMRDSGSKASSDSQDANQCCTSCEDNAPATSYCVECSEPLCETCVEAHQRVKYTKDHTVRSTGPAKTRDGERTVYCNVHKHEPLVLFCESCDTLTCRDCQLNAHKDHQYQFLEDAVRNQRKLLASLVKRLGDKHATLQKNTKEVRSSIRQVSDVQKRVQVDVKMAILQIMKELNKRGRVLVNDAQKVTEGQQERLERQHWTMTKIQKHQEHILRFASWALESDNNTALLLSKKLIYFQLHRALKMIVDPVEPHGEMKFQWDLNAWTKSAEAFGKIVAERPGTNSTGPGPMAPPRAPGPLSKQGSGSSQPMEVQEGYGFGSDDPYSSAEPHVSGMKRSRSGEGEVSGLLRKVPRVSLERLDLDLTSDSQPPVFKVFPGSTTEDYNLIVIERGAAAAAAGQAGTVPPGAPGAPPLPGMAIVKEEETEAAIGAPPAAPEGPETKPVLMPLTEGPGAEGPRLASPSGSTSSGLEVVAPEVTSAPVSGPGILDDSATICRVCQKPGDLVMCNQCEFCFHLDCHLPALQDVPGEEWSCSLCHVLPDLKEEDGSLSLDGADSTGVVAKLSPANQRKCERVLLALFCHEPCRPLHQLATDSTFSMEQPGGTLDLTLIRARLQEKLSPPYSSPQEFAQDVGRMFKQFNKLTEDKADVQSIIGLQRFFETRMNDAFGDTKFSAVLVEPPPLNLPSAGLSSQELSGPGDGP

For this experiment, the target named is TRIM28 (mouse (endogenous in mESCs)) (UniProt Q62318). Kind of experiment: co-IP; RIPA lysates of mESCs overexpressing FLAG-ZFP708 variants; immunoprecipitated with anti-Trim28 antibody, western blot with anti-Flag antibody; empty vector as negative control. In general terms: Immunoblotting shows a protein as a band on a membrane.

No constants are given. Whether binding was seen depends on the method and setting. Binding seen in cells or lysates may run through a third protein. Binding calls can cover weak binding; strength is not graded here.

In the case of “FLAG-tagged full-length ZFP708 (from UniProt F8VPP0)”, the binding entry is “binds”.
